# PubChem BioAssay AID1487 (National Center for Advancing Translational Sciences (NCATS), 2009)
# Several values for one entry are separate records, joined by “and”; a condition that tells them apart may be missing. Identical values can stand only once. The list shows a part of the results. These are further read-outs of the screen, such as a control signal, another cell line or another target. No call is given for them. The list favours compounds with an active or inconclusive main result. Words in brackets tell the shape of the fitted curve; partial curves, single points and poor fits give uncertain potencies.
# Assay: qHTS Assay for Modulators of Lamin A Splicing
# Conditions: HeLa LMNA splicing GFP/RFP minigene ratio, 48 h
# Outline: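 S3 HeLa stable clones carrying a lamin A-EGFP splicing minigene plus DsRed2 were seeded at 600 cells/well in Opti-MEM with 2% FBS, pin-dosed and incubated 48 h at 37°C. Acumen cytometry (488 nm) gave the GFP/RFP total-intensity ratio.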
# [1] = measured here: GFP splicing reporter channel
# [2] = measured here: RFP viability control channel
Compound,AC50 [1],AC50 [2]
O=C(c1c(Cl)nc2sccn12)N1CCN(c2cccc(Cl)c2)CC1,"10 µM [rising, partial curve, poor fit]","7.08 µM [rising, partial curve]"
Cc1ccc(O)c(Sc2cc(C)ccc2O)c1,,"35.5 µM [rising, single point]"
CCN(CC)S(=O)(=O)c1ccc(S(=O)(=O)Nc2cc3c(cc2C(C)=O)OCO3)cc1,,"14.1 µM [rising, partial curve, poor fit]"
COc1ccccc1N1CCN(C(=O)C2c3ccccc3Oc3ccccc32)CC1,,"11.2 µM [rising, partial curve]"
COc1ccc(NC(=O)CSc2ccccc2)cn1,,"35.5 µM [rising, single point]"
CCOC(=O)c1ccccc1NC(=O)Cc1c(C(=O)O)c(C)cn1C,,"0.2 µM [falling, full curve, poor fit]"
COc1ccc(-c2cc(=O)c3ccccc3o2)cc1,"12.6 µM [rising, single point]","11.2 µM [rising, single point]"
Cc1ccccc1C1C2=C(Nc3[nH]n(-c4ccccc4)c(=O)c31)c1ccccc1C2=O (stereo unspecified),,"14.1 µM [rising, partial curve]"
O=C(NCC(c1cccnc1)N1CCN(c2ccccc2)CC1)c1ccc2c(c1)OCO2 (stereo unspecified),,"14.1 µM [rising, single point]"
Cc1cc(C)nc(N/N=C/C2=C(N3CCOCC3)C(=C\c3ccc(Cl)cc3)/CC2)n1,,"22.4 µM [rising, partial curve, poor fit]"
c1c2c(cc3sc(N4CCCCC4)nc13)OCCO2,"35.5 µM [rising, single point]",
Cc1ccccc1-c1nc(CN2CCCC2c2ccc(F)cc2)c(C)o1 (stereo unspecified),"22.4 µM [falling, partial curve]","0.178 µM [falling, full curve, poor fit]"
COc1ccc(OC)c(N2Cc3ccccc3C2)c1,,"17.8 µM [rising, single point]"
CC(C)N(C#N)c1nc(N2CCOCC2)nc(N2CCOCC2)n1,,"35.5 µM [rising, single point]"
Cc1cccc(CS(=O)(=O)CC2Nc3ccc(C(=O)NCc4ccccc4)cc3NC2=O)c1 (stereo unspecified),"14.1 µM [falling, partial curve, poor fit]","28.2 µM [falling, partial curve]"
CCCCCn1c(CN2CCN(c3cc(Cl)ccc3C)CC2)nc2c1c(=O)[nH]c(=O)n2C,"35.5 µM [falling, single point]","25.1 µM [falling, single point]"
O=C(c1ccco1)N1CCN(c2nc(C3CC3)nc3c2nnn3Cc2ccccc2Cl)CC1,"31.6 µM [rising, single point]","35.5 µM [rising, single point]"
O=[N+]([O-])c1cc(S(=O)(=O)Nc2cccc(Cl)c2)ccc1N=Nc1c(O)[nH]c2ccccc12,"25.1 µM [falling, single point]","35.5 µM [falling, single point]"
CCN(CC)C(=O)c1cccc(-c2ccc(OC)cc2)c1,"11.2 µM [rising, partial curve]","11.2 µM [rising, partial curve]"
O=C(NCc1cc(C(F)(F)F)cc(C(F)(F)F)c1)C1CC(c2c(Cl)cccc2Cl)=NO1 (stereo unspecified),"35.5 µM [rising, single point]","35.5 µM [rising, single point]"
COc1ccc(N2CCN(C(=O)CSc3nc4c(c(=O)n(C)c(=O)n4C)n3C(C)C)CC2)cc1,,"8.91 µM [rising, partial curve]"
COc1ccc(N2CCCn3c2nc2c3c(=O)n(CCCc3ccccc3)c(=O)n2C)cc1,"7.94 µM [rising, partial curve, poor fit]","11.2 µM [rising, partial curve, poor fit]"
CCn1c(=O)c2[nH]c(-c3ccccc3)nc2n(CC)c1=O,"6.31 µM [falling, partial curve, poor fit]","0.316 µM [rising, full curve, poor fit]"
Cc1ccc(-n2nnnc2SC(C(=O)c2c[nH]c3ccccc23)c2ccccc2)cc1 (stereo unspecified),"35.5 µM [falling, single point]","35.5 µM [falling, single point]"
COc1ccc(S(=O)(=O)NCC(c2cccs2)S(=O)(=O)c2ccc(C)cc2)cc1F (stereo unspecified),"0.708 µM [falling, full curve, poor fit]","0.794 µM [falling, single point]"
N#Cc1c(-c2ccccc2)no[n+]1[O-],"12.6 µM [falling, partial curve]","12.6 µM [falling, partial curve]"

Compound,AC50 [1],AC50 [2]
COc1ccc(-c2csc(NC(=O)CC(C)C)n2)cc1,,"35.5 µM [rising, single point]"
CCCNc1nc(-c2ccccc2)c(C(=O)OCC)cc1C#N,,"5.62 µM [rising, single point]"
Cc1nnc(N(C)C(=O)c2ccncc2)s1,,"0.0251 µM [falling, full curve, poor fit]"
Cc1ccc(S(=O)(=O)N/N=C/c2cccc([N+](=O)[O-])c2)cc1,,"28.2 µM [rising, single point]"
CCCNC[C@H](O)COc1ccccc1C(=O)CCc1ccccc1,"200 nM [falling, single point] and 2.82 µM [rising, single point]","0.251 µM [falling, single point]"
CCN(CC)c1ccc(-c2nc3cnccn3c2NC2CCCC2)cc1,"25.1 µM [falling, single point]","22.4 µM [falling, single point]"
NC1=NC(=Nc2cccc(Cl)c2)c2ccccc21,,"8.91 µM [rising, single point]"
Cc1ccc(NC(=O)CCc2c(C)nn(-c3ccc(N4CCCCC4)nn3)c2C)cc1F,"3.16 µM [falling, partial curve, poor fit]","0.112 µM [falling, full curve, poor fit]"
Nc1nc(Cl)nc2c1ncn2[C@@H]1O[C@H](CO)[C@H](O)C1F (stereo partly specified),,"0.0794 µM [rising, full curve]"
CCC(=O)Nc1sc(Cc2ccccc2)c(C)c1C(N)=O,"35.5 µM [falling, single point]","35.5 µM [falling, single point]"
COc1ccc(N=C2SC(CC(=O)Nc3ccc(F)cc3)C(=O)N2Cc2ccco2)cc1 (stereo unspecified),,"7.94 µM [rising, partial curve, poor fit]"
CCCCCCCCCC(=O)NC(CN1CCOCC1)[C@H](O)c1ccccc1 (stereo partly specified),"6.31 µM [falling, partial curve, poor fit]","0.00447 µM [falling, full curve, poor fit]"
COC(=O)c1ccc(Oc2nc(Nc3ccc(C)c(C)c3)nc(N(C)C)n2)cc1,"35.5 µM [rising, single point]","35.5 µM [rising, single point]"
CCOC(=O)c1ccc(CNC(=O)c2cc(C(C)(C)C)oc2C)o1,"5.62 µM [falling, single point]","5.62 µM [falling, single point]"
COc1ccc(C=O)c(OC)c1,"0.01 µM [falling, full curve, poor fit]",
Fc1ccc(Nc2nc(SCc3ccccc3Cl)nc3ccccc23)cc1,"35.5 µM [falling, single point]","35.5 µM [falling, single point]"
O=C(c1ccc(Cl)c(Cl)c1)N1CCC(=O)N(C(COCc2cccc(Cl)c2)Cc2ccccc2)CC1 (stereo unspecified),"12.6 µM [rising, single point]","17.8 µM [rising, partial curve]"
Cc1[nH]n(-c2ccccc2)c(=O)c1/C=N\NC(=O)C1COc2ccccc2O1 (stereo unspecified),,"35.5 µM [rising, single point]"
NC(=O)C1CCN(C(=O)c2ccc3c(c2)N(Cc2cccc(Cl)c2)C(=O)c2ccccc2S3=O)CC1 (stereo unspecified),,"1.41 µM [falling, full curve]"
CN1C(=O)N(S(=O)(=O)c2ccc(F)c(F)c2F)C(=O)C1(C)C,,"6.31 µM [falling, full curve, poor fit]"
Cc1ccc(C(=O)NC(=C(Cl)Cl)S(=O)(=O)c2ccccc2)cc1,"20 µM [falling, partial curve, poor fit]","25.1 µM [falling, single point]"
Cc1ccc(CNC(=O)/C=C/C(=O)O)cc1,,"0.0794 µM [rising, full curve, poor fit]"
C[C@H](N[C@@H](C)COc1ccccc1)[C@H](O)c1ccc(O)cc1,"0.708 µM [falling, partial curve, poor fit]",
Cc1c(O)c(S(=O)(=O)c2ccccc2)c(=O)n(-c2ccccc2)c1-c1ccccc1,,"3.16 µM [rising, partial curve, poor fit]"
Cn1c(NCC(O)c2ccccc2)nc2c1c(=O)n(Cc1ccc(Cl)cc1)c(=O)n2C (stereo unspecified),,"10 µM [rising, partial curve, poor fit]"
COCCn1c(CN2CCN(c3cccc(Cl)c3)CC2)nc2c1c(=O)n(C)c(=O)n2C,,"7.94 µM [rising, partial curve]"
